Data on 1 substance can be found in publication doi:10.1101/2024.07.11.603088.

Test [1] has as its target Flag-tagged mutant YTHDF2 W432A (UniProt Q9Y5A9). The experiment in a line: proximity ligation.
Test [2] has as its target Flag-tagged mutant YTHDF2 W486A (UniProt Q9Y5A9). The experiment in a line: proximity ligation.

These are yes or no findings as the source states them, for the method shown. In cells and extracts the contact can be indirect.

Consider “Aiolos (IKZF3) (human, endogenous) (from UniProt Q9UKT9 1-509)”, for which the binding entry in test [1] and in test [2] was “no binding” throughout.
